In US20210179724A1:
No constants are given. Whether binding was seen depends on the method and setting. Some entries that bind do so weakly or less than the wild type.

Target: adenosine A2A receptor (Homo sapiens (Human)) (UniProt P29274)
Experiment: flow cytometry, 100 nM IgG, HEK293-A2a cells against parent cells

binding: binds
B1: A2A - 2 (antibody, V domains shown)
VH: EVQLLESGAEVKKPGASVKVSCKASGYTFTGYYMHWVRQAPGQGLEWMGWINPNSGGTNYAQKFQGRVTMTRDTSISTAYMELSSLRSEDTAVYYCARGGPFDYWGQGTMVTVSS
VL: ELTLTQSPAFMSATPGDKVNISCKASQDIDDDMNWYQQKPGEAAIFIIQEATTLVPGIPPRFSGSGYGTDFTLTINNIESEDAAYYFCLQHDNFPMYTFGQGTKLEIK
